Experimental data as given in publication PMC7052099 (2020).

Assay: general procedure: Fmoc solid-phase peptide synthesis; NovaSyn TGR R resin ([…]); Oxyma/DIC (automated); DIC/HOBt (manual)
Conditions: 220 nm

Row | Substance | final HPLC purity (whole synthesis, scale of the general procedure 15-µmol) [%] | final HPLC purity (late stage modification step) [%]
1 | [K^4(Nα(Palm)-Lys-Nε(GFLGDLKVRKAAP-βAla-DOTA)),F^7,P^34]-NPY [pb12] | > 95 | 
2 | [K^4(Nα(Palm)-Lys-Nε(GFLGDLKVRKAAP-βAla-([^natTb]Tb-DOTA))),F^7,A^33,P^34,A^35]-NPY |  | > 95
3 | [K^4(Nα(Palm)-Lys-Nε(GFLGDLKVRKAAP-βAla-([^natTb]Tb-DOTA))),F^7,P^34]-NPY [[^natTb]Tb-pb12] |  | > 95

One purity is given for all peptides; the source may state it once.
